Measured values as given in paper PMC6072516, “Rational design and synthesis of novel phenylsulfonyl-benzamides as anti-prostate cancer agents” (MedChemComm, 2017).

Key:
[1] = system: four human prostate cancer cell lines: LNCaP, 22Rv1, VCaP, DU145; experiment: Antiproliferative assay, overall effect in the four cell lines (geometric mean); format: cell-based; details: geometric mean of the four cell lines, read-out: Absolute IC50 Geo. mean
Procedure: PCR based DNA-fingerprinting methodology.
density of 4.000 – 30.000 cells/well.
test compound were added.
concentrations in triplicate.
After an incubation period of
control/background ratio >3.0
The absolute IC50 value reflects the
The calculation was done by a 4
for calculation of the geometric mean value.
of 0.05% Trypsin/EDTA. […] When all cells

[2] = system: VCaP; experiment: 2D monolayer antiproliferative assay (propidium iodide), VCaP; details: Homo sapiens, 96 h, read-out: Absolute IC50 VCaP
[3] = system: 22Rv1; experiment: 2D monolayer antiproliferative assay (propidium iodide), 22Rv1; details: Homo sapiens, 22Rv1, 96 h, read-out: Absolute IC50 22Rv1
[4] = system: LNCaP; experiment: 2D monolayer antiproliferative assay (propidium iodide), LNCaP; details: Homo sapiens, 96 h, read-out: Absolute IC50 LNCaP

## CNC(=O)c1ccc(N2C(=S)N(c3ccc(C#N)c(C(F)(F)F)c3)C(=O)C2(C)C)cc1F [Enzalutamide, enzalutamide, reference compound]
[1]
  IC50: 27.4 µM
[2]
  IC50: 24.5 µM
[3]
  IC50: 24.8 µM
[4]
  IC50: 20.9 µM
